Source: the supplement of paper PMC11732987, “Enantioselective OTUD7B fragment discovery through chemoproteomics screening and high-throughput optimisation” (Communications Chemistry, 2025)
Some of the results follow. The data scatter; read single values as rough.

Chains of the proteins cited; added tags and fusions are not shown. Lines headed by an entry give the natural chain unless they say otherwise; changes in a name come on top.
UniProt Q13247: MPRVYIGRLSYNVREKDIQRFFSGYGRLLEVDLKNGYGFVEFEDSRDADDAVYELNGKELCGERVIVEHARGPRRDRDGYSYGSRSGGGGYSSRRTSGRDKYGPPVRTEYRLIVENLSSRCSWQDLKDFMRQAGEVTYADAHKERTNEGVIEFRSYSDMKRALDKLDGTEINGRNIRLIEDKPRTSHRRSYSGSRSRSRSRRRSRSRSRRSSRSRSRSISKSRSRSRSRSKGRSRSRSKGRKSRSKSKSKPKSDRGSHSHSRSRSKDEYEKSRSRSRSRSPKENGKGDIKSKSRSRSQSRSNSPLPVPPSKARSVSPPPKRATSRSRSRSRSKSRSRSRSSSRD
UniProt Q96SB4, whole entry, looked up: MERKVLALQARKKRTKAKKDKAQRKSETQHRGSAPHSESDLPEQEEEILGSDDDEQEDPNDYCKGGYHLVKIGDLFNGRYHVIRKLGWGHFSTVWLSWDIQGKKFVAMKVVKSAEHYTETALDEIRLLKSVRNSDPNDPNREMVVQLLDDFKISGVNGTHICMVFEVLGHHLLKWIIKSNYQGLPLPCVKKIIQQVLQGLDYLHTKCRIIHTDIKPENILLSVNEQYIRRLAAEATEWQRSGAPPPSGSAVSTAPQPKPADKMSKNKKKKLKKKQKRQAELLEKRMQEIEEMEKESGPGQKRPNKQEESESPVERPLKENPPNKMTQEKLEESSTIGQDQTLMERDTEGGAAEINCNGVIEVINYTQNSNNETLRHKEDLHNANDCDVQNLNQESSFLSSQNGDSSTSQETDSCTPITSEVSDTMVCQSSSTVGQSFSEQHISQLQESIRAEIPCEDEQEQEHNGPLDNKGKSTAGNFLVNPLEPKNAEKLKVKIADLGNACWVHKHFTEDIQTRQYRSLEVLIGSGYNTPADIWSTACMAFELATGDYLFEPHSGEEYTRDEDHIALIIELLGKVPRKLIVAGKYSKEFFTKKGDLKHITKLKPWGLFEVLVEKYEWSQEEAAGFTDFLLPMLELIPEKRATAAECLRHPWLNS
UniProt Q96JI7: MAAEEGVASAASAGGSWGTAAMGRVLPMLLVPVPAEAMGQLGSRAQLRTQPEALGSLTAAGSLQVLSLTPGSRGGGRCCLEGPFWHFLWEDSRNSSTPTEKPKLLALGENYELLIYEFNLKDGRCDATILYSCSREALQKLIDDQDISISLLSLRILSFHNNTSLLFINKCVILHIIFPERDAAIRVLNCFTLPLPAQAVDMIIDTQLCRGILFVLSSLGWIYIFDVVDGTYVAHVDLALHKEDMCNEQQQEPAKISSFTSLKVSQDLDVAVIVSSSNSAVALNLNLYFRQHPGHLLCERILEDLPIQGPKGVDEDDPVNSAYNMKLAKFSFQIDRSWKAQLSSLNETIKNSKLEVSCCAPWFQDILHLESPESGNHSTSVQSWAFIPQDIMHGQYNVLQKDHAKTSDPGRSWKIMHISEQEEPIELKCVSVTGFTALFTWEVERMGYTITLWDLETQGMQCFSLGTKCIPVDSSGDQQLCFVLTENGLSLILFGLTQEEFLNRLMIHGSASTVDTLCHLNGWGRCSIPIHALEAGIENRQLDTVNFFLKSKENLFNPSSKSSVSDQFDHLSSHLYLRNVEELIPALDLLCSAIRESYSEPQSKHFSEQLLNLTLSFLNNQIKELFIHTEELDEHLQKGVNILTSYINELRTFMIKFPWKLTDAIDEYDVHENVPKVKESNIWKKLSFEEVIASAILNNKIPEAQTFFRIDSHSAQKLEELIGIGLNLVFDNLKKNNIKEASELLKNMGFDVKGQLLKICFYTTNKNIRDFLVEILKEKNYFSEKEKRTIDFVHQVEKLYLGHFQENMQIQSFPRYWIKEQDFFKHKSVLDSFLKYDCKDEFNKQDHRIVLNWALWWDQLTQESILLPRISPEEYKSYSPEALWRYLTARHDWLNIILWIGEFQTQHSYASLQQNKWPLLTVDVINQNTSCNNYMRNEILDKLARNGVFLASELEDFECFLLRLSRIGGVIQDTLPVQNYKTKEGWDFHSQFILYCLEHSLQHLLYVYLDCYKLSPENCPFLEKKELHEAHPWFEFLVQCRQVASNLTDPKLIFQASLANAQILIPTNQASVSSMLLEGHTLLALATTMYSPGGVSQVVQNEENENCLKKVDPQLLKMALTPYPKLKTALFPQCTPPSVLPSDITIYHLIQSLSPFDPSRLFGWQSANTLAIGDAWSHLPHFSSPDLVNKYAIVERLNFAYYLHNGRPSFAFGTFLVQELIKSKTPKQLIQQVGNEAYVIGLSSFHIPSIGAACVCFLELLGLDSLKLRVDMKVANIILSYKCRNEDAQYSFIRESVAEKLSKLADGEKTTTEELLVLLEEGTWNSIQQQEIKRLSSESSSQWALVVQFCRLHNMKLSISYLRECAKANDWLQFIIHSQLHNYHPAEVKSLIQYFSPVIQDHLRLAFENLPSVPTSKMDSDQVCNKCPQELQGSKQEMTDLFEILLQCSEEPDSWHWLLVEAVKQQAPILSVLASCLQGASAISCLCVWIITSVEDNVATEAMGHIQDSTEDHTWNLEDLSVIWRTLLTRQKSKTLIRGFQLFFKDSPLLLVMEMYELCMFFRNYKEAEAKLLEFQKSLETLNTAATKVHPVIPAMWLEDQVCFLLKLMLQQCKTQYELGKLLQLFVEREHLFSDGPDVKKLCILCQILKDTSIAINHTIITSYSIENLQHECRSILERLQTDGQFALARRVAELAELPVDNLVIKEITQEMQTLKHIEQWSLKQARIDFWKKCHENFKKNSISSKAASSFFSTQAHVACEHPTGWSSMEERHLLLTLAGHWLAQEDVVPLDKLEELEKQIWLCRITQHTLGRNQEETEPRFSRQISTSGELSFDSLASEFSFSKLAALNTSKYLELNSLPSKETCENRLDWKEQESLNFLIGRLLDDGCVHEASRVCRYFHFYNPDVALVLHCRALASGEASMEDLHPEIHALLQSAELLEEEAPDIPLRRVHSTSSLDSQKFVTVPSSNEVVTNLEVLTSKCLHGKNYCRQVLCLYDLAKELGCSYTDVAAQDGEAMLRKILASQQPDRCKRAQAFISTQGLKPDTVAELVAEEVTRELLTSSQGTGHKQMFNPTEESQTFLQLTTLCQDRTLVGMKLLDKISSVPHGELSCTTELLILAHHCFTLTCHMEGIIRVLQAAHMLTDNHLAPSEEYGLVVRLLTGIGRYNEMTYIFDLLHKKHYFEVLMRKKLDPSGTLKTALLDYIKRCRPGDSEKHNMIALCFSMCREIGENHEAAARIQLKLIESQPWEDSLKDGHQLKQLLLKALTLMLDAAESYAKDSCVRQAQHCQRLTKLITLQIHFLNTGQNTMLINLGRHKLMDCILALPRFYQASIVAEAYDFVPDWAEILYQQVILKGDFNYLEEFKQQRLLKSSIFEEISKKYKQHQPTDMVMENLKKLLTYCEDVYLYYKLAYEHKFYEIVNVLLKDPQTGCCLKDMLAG
UniProt O43426, whole entry, looked up: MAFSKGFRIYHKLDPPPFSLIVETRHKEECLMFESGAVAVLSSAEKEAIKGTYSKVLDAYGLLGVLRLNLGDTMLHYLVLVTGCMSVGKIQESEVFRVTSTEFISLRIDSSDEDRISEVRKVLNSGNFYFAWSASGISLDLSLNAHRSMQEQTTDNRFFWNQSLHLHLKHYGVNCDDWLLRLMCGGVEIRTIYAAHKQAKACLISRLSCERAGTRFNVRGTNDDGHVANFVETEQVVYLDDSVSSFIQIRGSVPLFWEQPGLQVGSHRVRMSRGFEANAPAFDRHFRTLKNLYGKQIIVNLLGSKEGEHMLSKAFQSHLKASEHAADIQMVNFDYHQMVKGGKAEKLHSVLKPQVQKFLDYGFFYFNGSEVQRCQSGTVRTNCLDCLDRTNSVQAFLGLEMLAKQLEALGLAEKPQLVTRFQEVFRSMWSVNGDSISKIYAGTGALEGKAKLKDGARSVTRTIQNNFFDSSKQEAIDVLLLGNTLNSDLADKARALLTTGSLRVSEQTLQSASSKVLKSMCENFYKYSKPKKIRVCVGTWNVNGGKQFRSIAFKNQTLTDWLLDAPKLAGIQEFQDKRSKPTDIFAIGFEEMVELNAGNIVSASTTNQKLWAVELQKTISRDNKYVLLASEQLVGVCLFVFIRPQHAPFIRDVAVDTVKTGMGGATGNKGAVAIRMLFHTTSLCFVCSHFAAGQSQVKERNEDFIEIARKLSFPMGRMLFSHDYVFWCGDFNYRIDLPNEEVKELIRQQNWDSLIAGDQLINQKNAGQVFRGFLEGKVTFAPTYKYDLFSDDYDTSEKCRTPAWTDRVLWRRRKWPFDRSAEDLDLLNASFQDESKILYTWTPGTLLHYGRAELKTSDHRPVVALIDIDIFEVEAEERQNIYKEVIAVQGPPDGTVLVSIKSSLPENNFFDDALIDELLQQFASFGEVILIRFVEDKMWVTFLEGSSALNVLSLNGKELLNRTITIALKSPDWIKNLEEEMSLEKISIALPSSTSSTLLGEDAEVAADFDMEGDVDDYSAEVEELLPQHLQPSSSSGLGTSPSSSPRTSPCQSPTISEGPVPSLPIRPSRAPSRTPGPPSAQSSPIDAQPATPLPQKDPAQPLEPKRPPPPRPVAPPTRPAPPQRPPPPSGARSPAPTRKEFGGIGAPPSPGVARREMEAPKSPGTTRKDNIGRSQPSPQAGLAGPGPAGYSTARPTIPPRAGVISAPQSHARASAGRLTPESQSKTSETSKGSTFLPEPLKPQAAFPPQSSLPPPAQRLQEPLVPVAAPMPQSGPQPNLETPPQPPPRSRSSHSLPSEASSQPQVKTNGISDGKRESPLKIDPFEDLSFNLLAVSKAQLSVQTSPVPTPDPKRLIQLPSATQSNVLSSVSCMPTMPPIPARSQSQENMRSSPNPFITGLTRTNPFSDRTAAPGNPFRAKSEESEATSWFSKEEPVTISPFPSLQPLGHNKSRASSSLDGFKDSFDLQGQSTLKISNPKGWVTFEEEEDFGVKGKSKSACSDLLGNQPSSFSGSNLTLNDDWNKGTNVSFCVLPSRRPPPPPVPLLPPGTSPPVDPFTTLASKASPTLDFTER
UniProt Q69YQ0: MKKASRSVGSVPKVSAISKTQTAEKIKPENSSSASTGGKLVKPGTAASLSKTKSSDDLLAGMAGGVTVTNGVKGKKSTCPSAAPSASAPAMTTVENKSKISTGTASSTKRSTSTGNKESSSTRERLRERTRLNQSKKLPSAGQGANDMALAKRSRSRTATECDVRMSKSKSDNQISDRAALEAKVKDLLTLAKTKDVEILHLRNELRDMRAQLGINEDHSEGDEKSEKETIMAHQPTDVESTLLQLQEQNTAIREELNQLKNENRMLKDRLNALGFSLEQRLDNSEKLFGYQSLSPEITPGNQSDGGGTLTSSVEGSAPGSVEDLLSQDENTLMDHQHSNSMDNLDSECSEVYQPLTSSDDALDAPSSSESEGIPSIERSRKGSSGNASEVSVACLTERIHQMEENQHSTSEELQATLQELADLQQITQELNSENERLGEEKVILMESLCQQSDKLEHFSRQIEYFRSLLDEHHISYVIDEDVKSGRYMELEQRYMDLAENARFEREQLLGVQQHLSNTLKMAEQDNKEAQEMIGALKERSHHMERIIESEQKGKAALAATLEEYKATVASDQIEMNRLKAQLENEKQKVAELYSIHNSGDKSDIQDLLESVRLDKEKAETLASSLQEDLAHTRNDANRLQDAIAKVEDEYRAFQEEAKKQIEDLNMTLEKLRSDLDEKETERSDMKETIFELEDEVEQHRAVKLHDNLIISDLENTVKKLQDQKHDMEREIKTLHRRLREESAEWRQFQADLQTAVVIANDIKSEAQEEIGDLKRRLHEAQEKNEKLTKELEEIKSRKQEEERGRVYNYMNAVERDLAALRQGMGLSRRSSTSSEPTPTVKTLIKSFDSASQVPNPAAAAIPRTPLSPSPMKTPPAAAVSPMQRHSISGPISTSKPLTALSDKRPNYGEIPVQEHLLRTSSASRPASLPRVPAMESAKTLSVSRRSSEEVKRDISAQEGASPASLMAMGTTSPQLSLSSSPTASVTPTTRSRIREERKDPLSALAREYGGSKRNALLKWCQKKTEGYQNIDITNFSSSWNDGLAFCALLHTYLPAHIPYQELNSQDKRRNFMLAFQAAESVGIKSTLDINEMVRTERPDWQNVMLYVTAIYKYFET
UniProt Q12846: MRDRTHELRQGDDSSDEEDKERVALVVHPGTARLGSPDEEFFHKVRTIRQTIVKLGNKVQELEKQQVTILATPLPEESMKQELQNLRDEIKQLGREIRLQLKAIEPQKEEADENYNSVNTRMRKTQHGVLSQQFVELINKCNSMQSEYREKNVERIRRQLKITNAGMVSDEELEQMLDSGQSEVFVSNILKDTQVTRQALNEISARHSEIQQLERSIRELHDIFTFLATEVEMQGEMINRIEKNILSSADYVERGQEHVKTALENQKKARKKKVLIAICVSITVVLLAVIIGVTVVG

Tests used:
[1] = compound: ClCC(=O)N[C@H]1CCCc2ccccc12; assay: log2 mean competition ratio of IA-DTB cysteine labelling (DMSO/compound) (log2 ratio); higher = stronger cysteine engagement by compound; settings: treatment time: 4 h, cell line lysate: HEK293T
Description: (§1)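 IA-DTB competitive cysteine chemoproteomics in HEK293T RIPA lysate. Lysates were treated with compound 29 or 30 at 50 or 200 µM for 4 h, then IA-DTB (500 µM, 1 h), trypsin-digested, NeutrAvidin-enriched and analysed by diaPASEF. Competition ratio = intensity DMSO / intensity compound (n=4 treated, n=64 DMSO); binding: mean log2 CR ≥ 1 and p ≤ 0.05 plus QC filters. Target is the cysteine site.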

[2] = compound: ClCC(=O)N[C@@H]1CCCc2ccccc12; assay: as above; settings: treatment time: 4 h, cell line lysate: HEK293T
Description: as §1

| Target | log2 mean competition ratio ([1]; 50 µM) | log2 mean competition ratio ([1]; 200 µM) | log2 mean competition ratio ([2]; 50 µM) | log2 mean competition ratio ([2]; 200 µM) |
| --- | --- | --- | --- | --- |
| SPINT2 C38 | -0.289 | 0.389 | – | – |
| SPG21 C204 (UniProt Q9NZD8) | -0.0622 | -0.525 | – | – |
| STEEP1 C11 | 0.106 | -0.0168 | – | – |
| STAM C33 | 0.0995 | -0.00662 | -0.2 | 0.545 |
| SRSF1 C16 (UniProt Q07955) | -0.0171 | 0.409 | -0.209 | -0.0115 |
| SYNE2 C601 (UniProt Q8WXH0) | -0.192 | 0.0745 | – | – |
| SSX2IP C547 (UniProt Q9Y2D8) | -0.0428 | -0.0558 | – | 0.299 |
| STK3 C77 (UniProt Q13188) | 0.248 | -0.36 | -0.0485 | -0.277 |
| STXBP3 C557 (UniProt O00186) | -0.214 | -0.113 | – | – |
| SRSF6 C121 (UniProt Q13247) | 0.155 | -0.0315 | 0.0256 | -0.119 |
| SPECC1 C740 (UniProt Q5M775) | -0.164 | -0.121 | – | – |
| SRPK1 C647 (UniProt Q96SB4) | -0.236 | -0.0928 | -0.347 | 0.107 |
| SS18L1 C47 (UniProt O75177) | -0.164 | 0.133 | – | – |
| SPG11 C1019 (UniProt Q96JI7) | -0.577 | -0.187 | – | -0.755 |
| STIM2 C725 (UniProt Q9P246) | 0.0664 | 0.0963 | 0.402 | -0.0758 |
| SQSTM1 C113 (UniProt Q13501) | -0.195 | 0.00829 | – | – |
| SRP54 C36 (UniProt P61011) | -0.163 | -0.0736 | -0.0498 | -0.211 |

Taken from the listing (two entries):

| Target | log2 mean competition ratio ([1]; 50 µM) | log2 mean competition ratio ([1]; 200 µM) | log2 mean competition ratio ([2]; 50 µM) | log2 mean competition ratio ([2]; 200 µM) |
| --- | --- | --- | --- | --- |
| SS18L1 C47 (UniProt O75177) | -0.164 | 0.133 | – | – |
| SPG11 C1019 (UniProt Q96JI7) | -0.577 | -0.187 | – | -0.755 |

Next records

| Target | log2 mean competition ratio ([1]; 50 µM) | log2 mean competition ratio ([1]; 200 µM) | log2 mean competition ratio ([2]; 50 µM) | log2 mean competition ratio ([2]; 200 µM) |
| --- | --- | --- | --- | --- |
| SYNJ1 C374 (UniProt O43426) | -0.0753 | -0.00214 | – | – |
| SUPT5H C740 (UniProt O00267) | 0.0818 | -0.117 | – | – |
| SYNE2 C553 (UniProt Q8WXH0) | -0.185 | 0.0964 | – | – |
| SRGAP2 C486 | 0.46 | 0.282 | – | – |
| SPECC1L C162 (UniProt Q69YQ0) | -0.104 | 0.199 | -0.1 | 0.169 |
| SRBD1 C229 (UniProt Q8N5C6) | -0.158 | -0.0406 | – | – |
| STAMBPL1 C98 (UniProt Q96FJ0) | -0.0708 | 0.00406 | – | – |
| SPINDOC C12 (UniProt Q9BUA3) | -0.0254 | -0.0495 | – | – |
| STK31 C563 | 0.127 | 0.0232 | – | – |
| STX4 C141 (UniProt Q12846) | -0.331 | -0.174 | 0.00889 | -0.0417 |
| SRCAP C2042 (UniProt Q6ZRS2) | 0.602 | 0.0513 | – | – |
| STAU2 C491 (UniProt Q9NUL3) | -0.0375 | -0.222 | – | – |
| STRAP C152 (UniProt Q9Y3F4) | -0.0419 | 0.0487 | – | – |
| SRRM2 C1016 (UniProt Q9UQ35) | 0.0269 | 0.128 | 0.103 | 0.0466 |
| SPTAN1 C1930 (UniProt Q13813) | -0.38 | -0.068 | – | – |
| SRR C217 (UniProt Q9GZT4) | -0.0825 | -0.0243 | – | – |
| SRCAP C265 (UniProt Q6ZRS2) | -0.0497 | -0.257 | 0.0115 | 0.0698 |
